62 compounds from PubChem BioAssay AID445 (National Center for Advancing Translational Sciences (NCATS), 2006) can be followed below.

The other results are listed elsewhere or left out. The main result of the screen is listed elsewhere. These columns were measured beside it and carry no call. Compounds called inactive in the main read-out are mostly missing here. Words in brackets tell the shape of the fitted curve; partial curves, single points and poor fits give uncertain potencies.

The nature of this test: IkB Signaling. Conditions: ABC-DLBCL IkBa-CBG/CBR dual luciferase ratio (green luciferase fused to IkBa over red control in OCI-Ly3 lymphoma cells), 4 h. An outline of the steps:
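In this assay, an IκBα–CBG68 fusion accumulates when IKK-driven degradation is blocked; native CBR normalizes for cell number. OCI-Ly3 cells were treated 4 h with compound and doxycycline, then green and red light read after Chroma-Glo addition.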

Where [1] appears, read: measured here: control luc red channel unless noted.
The mark [2] stands for this setting: measured here: IkB-luc green channel.
The mark [3] stands for this setting: measured here: control luc red channel.

Usually AC50 stands for the concentration giving half of the maximal activity seen. With `CN(C)CCN1C(=O)C(O)=C(C(=O)c2cc3ccccc3o2)C1c1ccc(N(C)C)cc1` (centres undefined), the AC50 under setting [1] is 10 µM [falling, partial curve]. `COc1ccc2c(c1)c1c(c(=O)n(-c3cccc(Cl)c3)c(=O)n1C)n2C`: under setting [1], the AC50 was 1.26 µM [falling, full curve].

In the case of `Cc1cccc2sc(N(Cc3cccnc3)C(=O)C3CCCCC3)nc12`, the AC50 under setting [1] was 15.8 µM [falling, partial curve].

Take `COc1ccc(CSc2nc3ccncc3n2Cc2nc(-c3ccc(OC)c(OC)c3)oc2C)cc1`: the AC50 under setting [1] was 12.6 µM [falling, partial curve]. Regarding `Cc1cccc(Cn2nnc3c(=O)[nH]c(C4CCN(C(=O)c5ccccc5F)CC4)nc32)c1`, the AC50 under setting [1] was 3.98 µM [rising, single point]. The same measure, in the same setting: in the case of `CCOC(=O)c1c(-c2ccccc2)oc2ccc(NS(=O)(=O)c3ccccc3)cc12` it was 31.6 µM [falling, partial curve]; in that of `COc1ccc(S(=O)(=O)NCc2cccn2Cc2cccc(C)c2)cc1OC`, 39.8 µM [falling, single point].

As for `Cc1ccc(O)c(Sc2cc(C)ccc2O)c1`, under setting [1], the AC50 was 6.31 µM [falling, partial curve]. The same measure, in the same setting: under `O=C(c1c(Cl)nc2sccn12)N1CCN(c2cccc(Cl)c2)CC1` stands 39.8 µM [falling, single point].

Consider `Cc1sc2ncnc(Sc3nnnn3-c3ccc(Cl)cc3)c2c1C`, for which the AC50 under setting [2] was 39.8 µM [rising, single point] and the half-maximal activity concentration (AC50) under setting [3] was 15.8 µM [falling, partial curve].

For `CC(=O)c1ccc(NC(=O)CSc2nc(-c3ccccc3F)nc3c2c(=O)n(C)c(=O)n3C)cc1`, the concentration at half-maximal activity (AC50) under setting [1] was 31.6 µM [rising, single point] [measured here: IkB-luc green channel]. With `Cc1ccc(N(C)S(=O)(=O)c2ccc3[nH]cc(C(=O)O)c(=O)c3c2)cc1C`, under setting [1], the half-maximal activity concentration (AC50) is 20 µM [falling, single point]. Same read-out and setting: in the case of `Cc1ccc(C(=O)Nc2ccc3c(c2)N(C)C(=O)c2ccccc2S3)cc1F` it was 25.1 µM [falling, partial curve, poor fit]; in that of `CCSc1nnc(NC(=O)CSc2nccn2-c2cccc(C)c2)s1`, 15.8 µM [falling, partial curve]; in that of `CC1Cc2cc(S(=O)(=O)NCc3ccc(F)cc3)ccc2N1C(=O)C1CCC1` (centres undefined), 0.00631 µM [rising, full curve, poor fit]. Same read-out and setting: under `CC(=O)Oc1ccc(-c2ccc(C(=O)O)cc2)cc1` stands 3.16 µM [falling, full curve]. On to `COCCN(CCOC)S(=O)(=O)c1ccc(C(=O)Nc2nc(-c3ccncc3)cs2)cc1`, for which, under setting [1], the AC50 is 25.1 µM [falling, single point]. Still for that read-out and setting: in the case of `O=C(NCc1cccs1)c1ccc(CSc2nc3ccncc3n2Cc2cccc(F)c2)cc1` it was 12.6 µM [falling, single point]; in that of `O=C(CSc1nc2c([nH]c3ccccc32)c(=O)n1-c1ccc(F)cc1)N1CCCCCC1`, 3.16 µM [rising, full curve]. Still for that read-out and setting: under `COc1ccccc1CNC(=O)Nc1ccc2c(c1)N(C)C(=O)c1ccccc1S2` stands 7.94 µM [falling, partial curve].

For `O=C(Nc1ccc(S(=O)(=O)NCc2ccco2)cc1)c1ccc2ccccc2n1`, the AC50 under setting [1] was 39.8 µM [rising, single point] [measured here: IkB-luc green channel]. Same read-out and setting: under `Clc1cccc(-c2noc3ncnc(NC4CCCCC4)c23)c1` stands 6.31 µM [falling, partial curve]. On the same count and under the same terms, under `COc1cccc2cc(-c3nc(-c4cccs4)no3)c(=O)oc12` stands 1.58 µM [falling, partial curve]; under `c1ccc2c(c1)Cn1c-2nc2ccccc21`, 10 µM [falling, partial curve]. On the same count and under the same terms, under `COc1cc(NC(=O)CCc2c(C)nc3c(c(C)nn3-c3ccccc3)c2C)cc(OC)c1OC` stands 15.8 µM [falling, partial curve]; under `CN1C(=O)C2CCCCN2c2ccc(C(=O)NCc3ccccc3Br)cc21` (centres undefined), 31.6 µM [falling, single point]; under `CCOC(=O)c1c(C)c(C(=O)NCCc2ccc(OC)cc2)c(C)n1CC`, 2 µM [falling, single point].

With `CC(C)(C)C1CCc2c(sc3c2C(=O)NC(c2ccco2)N3)C1` (centres undefined), the AC50 under setting [1] was 31.6 µM [falling, single point]. As for `Cc1ccn2c(=O)c(C(=O)Nc3ccc(F)c(C(F)(F)F)c3)cnc2c1`, the AC50 under setting [1] was 3.98 µM [rising, partial curve]. `Cc1oc(-c2ccccc2F)nc1CN1CCC(C(=O)NCCc2ccc(Cl)cc2)CC1`: the concentration at half-maximal activity (AC50) under setting [1] was 12.6 µM [falling, partial curve].

As to `CCOc1ccc(-c2nonc2NC(=O)c2oc3ccc(Cl)cc3c2C)cc1`, the AC50 under setting [1] was 0.794 µM [falling, full curve]. On the same count and under the same terms, in the case of `COC(=O)c1ccccc1NC(=O)CCCn1nc(C)c2sc3ccccc3c2c1=O` it was 15.8 µM [falling, single point]; in that of `COc1ccc(-c2nnn3c2nc(NCc2ccccc2)c2ccccc23)cc1`, 0.1 µM [falling, full curve]; in that of `CC1=C(C(=O)Nc2ccc(C)cc2C)C(CC(C)C)n2nc(SCc3ccccc3C)nc2N1` (centres undefined), 1 µM [falling, partial curve]. The same measure, in the same setting: in the case of `O=c1oc2c(F)cc(F)cc2cc1S(=O)(=O)c1ccc(F)cc1` it was 31.6 µM [rising, partial curve] [measured here: IkB-luc green channel].

Regarding `Cc1cc(O)ccc1Nc1nc2ccccc2nc1Nc1ccc(O)cc1C`, the AC50 runs as follows: under setting [2], 1.58 µM [falling, full curve]; under setting [3], 1.58 µM [falling, partial curve]. For the compound `CCOc1ccccc1NC(=O)c1c(NCc2ccc(C)o2)sc2c1CCCCC2`, the half-maximal activity concentration (AC50) under setting [1] was 20 µM [falling, partial curve]. Still for that read-out and setting: in the case of `Cc1nc(C)c(CCNS(=O)(=O)c2ccc(C)c(C)c2)s1` it was 0.501 µM [rising, full curve, poor fit]. Turning to `Cc1ccc(Cc2nc3ccccc3nc2SCC(=O)N2CCCCC2)cc1`, the concentration at half-maximal activity (AC50) under setting [1] is 15.8 µM [falling, partial curve]. The same measure, in the same setting: in the case of `CCOc1ccccc1-c1nc(-c2cc3ccccc3nc2OC)no1` it was 2.51 µM [falling, full curve, poor fit].

Regarding `CCOc1ccc(CN2CCN(S(=O)(=O)c3ccc(Cl)cc3)CC2)cc1`, under setting [1], the concentration at half-maximal activity (AC50) was 25.1 µM [falling, single point]. On the same count and under the same terms, in the case of `Cc1ccc(C)c(NC(=O)c2ccc(=O)n(Cc3ccc(F)cc3)c2)c1` it was 1.58 µM [rising, full curve]; in that of `Clc1cccc(N2CCN(c3nc4ccccc4c4nc(-c5cccnc5)nn34)CC2)c1`, 6.31 µM [rising, single point]; in that of `O=C(O)CCCC(=O)Nc1cccc(-c2nc3ccccc3[nH]2)c1`, 15.8 µM [falling, partial curve].

With `CCCCC(=O)Nc1cc(-c2nc3ccccc3o2)ccc1OC`, the AC50 under setting [1] was 31.6 µM [falling, single point]. Consider `COc1ccc(-c2ccc(NS(=O)(=O)c3ccccc3)cc2)nn1`, for which the AC50 under setting [1] was 0.01 µM [rising, full curve, poor fit].

Take `Cc1ccc(NC(=O)CSc2ncccc2C(=O)Oc2ccccc2Cl)cc1Cl`: under setting [1], the AC50 was 0.0126 µM [falling, full curve].

Turning to `COc1ccc2[nH]cc(CCNC(=O)Nc3c(C)cccc3C)c2c1`, under setting [1], the AC50 is 3.98 µM [falling, partial curve, poor fit]. Same read-out and setting: in the case of `Cc1cc(NC(=O)CN(C)S(=O)(=O)c2ccc3c(c2)CCCC(=O)N3)ccc1Br` it was 39.8 µM [falling, partial curve, poor fit]; in that of `COc1cc(-c2nc(Cn3nnc(C(=O)Nc4ccccc4C)c3C)c(C)o2)cc(OC)c1OC`, 7.94 µM [falling, partial curve]; in that of `Cc1ccc(-c2cc(C(=O)N3CCN(c4ncccn4)CC3)c3ccccc3n2)cc1`, 10 µM [falling, partial curve]. Same read-out and setting: in the case of `N=C(CC(=O)Nc1ccccn1)c1ccccc1` it was 3.16 µM [falling, partial curve]; in that of `COc1ccc(-c2n[nH]c3c2C(c2ccc(Cl)cc2Cl)NC3=O)cc1` (centres undefined), 25.1 µM [falling, partial curve]; in that of `CCN(CCCNC(=O)c1ccc(Sc2ccc(C)cc2)c(NC(C)=O)c1)c1cccc(C)c1`, 25.1 µM [falling, partial curve]. On to `Cc1ccc2oc(-c3ccc(C)c(NC(=O)c4ccc5c(c4)OCCO5)c3)nc2c1`, for which, under setting [1], the AC50 was 12.6 µM [falling, partial curve]. `Cc1ccc(F)cc1NC(=O)CCc1c(C)nn(-c2ccc(N3CCCCC3)nn2)c1C`: the AC50 under setting [1] was 15.8 µM [falling, partial curve]. Turning to `CCCC1=C(C(=O)OCC)C(c2cc(Cl)cc(OC)c2OCC(=O)OCC)NC(=O)N1` (centres undefined), under setting [1], the AC50 was 15.8 µM [falling, partial curve]. Still for that read-out and setting: under `CCOC(=O)c1ccc(-c2ccc(/C=C(\C#N)C(=O)Nc3c(C)cccc3Cl)o2)cc1` stands 15.8 µM [falling, partial curve]; under `O=S(=O)(NCc1ccc(F)cc1)c1ccc2[nH]c3c(c2c1)CCCCC3`, 25.1 µM [falling, partial curve]; under `CCOC(=O)c1nc(Nc2ccc(OC)cc2)c2ccccc2n1`, 39.8 µM [falling, single point]. On the same count and under the same terms, in the case of `Cc1ccccc1Nc1c(-c2cccc(O)c2)nc2ccc(Br)cn12` it was 39.8 µM [falling, single point]; in that of `Cc1ccc(-c2nn(-c3cccc([N+](=O)[O-])c3)c3c2cnc2ccc(F)cc23)cc1`, 20 µM [rising, partial curve].
